The results in this text go back to PubChem BioAssay AID2685 (National Center for Advancing Translational Sciences (NCATS), 2010).

The nature of this test: qHTS Assay for Lipid Storage Modulators in Drosophila S3 Cells.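 On cell number change: cells counted by Cell Tracker Red CMTPX staining in the red channel.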 To be noted: BODIPY lipid droplet fluorescence, 18-24 h; for cell number change: measured here: cell count max response, cells fed with added oleic acid. The procedure, abridged: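 Drosophila S3 cells got compounds at several concentrations plus oleic acid (400 uM solution). Laser-scanning cytometry with 488 nm excitation read lipid droplets at 500-530 nm and cells at 575-640 nm. Percent activity was relative to 20 uM Triacsin C.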
(Quantitative high-throughput screening tests each substance at several concentrations.)

Where [1] appears, read: measured here: lipid fluorescence (Fed channel) AC50, cells fed with added oleic acid.
[2] abbreviates: measured here: cell number channel AC50, cells fed with added oleic acid.

The list shows a part of the results. These are further read-outs of the screen, such as a control signal, another cell line or another target. No call is given for them. The list favours compounds with an active or inconclusive main result. Words in brackets tell the shape of the fitted curve; partial curves, single points and poor fits give uncertain potencies.

`Cc1ccccc1COc1ccc2oc(C)c(C(=O)O)c2c1`: the cell number change was 1.07%.
What is called AC50 is the midpoint of the concentration-response curve, whichever way the signal moves. Read a high AC50 as activity only at high concentration. Turning to `O=C1OCc2cc(NC(=O)C3CCCCC3)ccc21`, the cell number change was -2.87%. Moreover, under setting [1], the AC50 is 0.116 µM [falling, full curve, poor fit].
With `CC(N=C1NS(=O)(=O)c2ccccc21)C(=O)N1CCc2ccccc2C1` (stereo not given), the cell number change was determined as 31.1%. Further, the AC50 under setting [2] was 32.6 µM [rising, single point].
For the molecule `O=C1c2ccccc2-c2cccc(C(=O)N3CCN(C(=O)c4ccccc4)CC3)c21`, the AC50 by setting is: under setting [2], 6.51 µM [falling, single point]; under setting [1], 6.51 µM [falling, single point].
Take `Cc1cc(C)nc(CCNC(=O)c2cc(COc3ccccc3)on2)n1`: the cell number change is -11.5%. The AC50 under setting [2] was 0.00517 µM [falling, full curve, poor fit].
In the case of `Clc1ccccc1/C=N/Nc1cc(N2CCOCC2)ncn1`, the cell number change was found to be 31.4%. Also, under setting [2], the AC50 was 29.1 µM [rising, single point].
For the molecule `Cc1cccnc1NC(=O)Cn1nc([N+](=O)[O-])cc1C`, the cell number change came out at 20.5%.
As to `CC1Cc2ccccc2N1C(=O)COC(=O)c1ccc(Cl)c(S(=O)(=O)N2CCOCC2)c1` (stereo not given), the cell number change was -1.42%. The AC50 under setting [1] is 1.3 µM [rising, full curve, poor fit].
For the molecule `CCOc1cc(C(=O)NCc2ccncc2)cc(OCC)c1OCC`, the cell number change stood at 49.6%. In addition, under setting [2], the concentration at half-maximal activity (AC50) was 7.31 µM [falling, single point].
Take `O=C(O)c1cnn2c(C(F)F)cc(C3CC3)nc12`: the cell number change was 2.66%. Also, the AC50 under setting [1] is 6.51 µM [falling, single point].
On to `O=C(CSc1nc(-c2ccccc2)cs1)N1CCN(C(=O)c2ccco2)CC1`, for which the cell number change was -13.6%. Also, the concentration at half-maximal activity (AC50) under setting [1] was 1.84 µM [rising, partial curve, poor fit].
`Cc1nn(C)c(Oc2cccc(Cl)c2)c1C(=O)O`: the cell number change came out at 3.68%. The concentration at half-maximal activity (AC50) under setting [2] is 0.651 µM [falling, full curve, poor fit]. In addition, the AC50 under setting [1] is 3.66 µM [falling, single point].
Take `CC1CCN(c2ccc(NC(=O)c3cccnc3)cc2)CC1`: under setting [1], the AC50 is 13 µM [falling, partial curve].
Consider `CS(=O)CSc1nc2c(cc1C#N)CCCC2` (stereo not given), for which the cell number change amounted to 16.6%.
In the case of `Cc1cc(C)cc(NC(=O)C2C3C=CC(O3)C2C(=O)O)c1` (stereo not given), the cell number change turned out to be 6.35%. The AC50 under setting [1] is 6.51 µM [falling, single point].
Consider `Cc1cc(/C=C2/SC(=S)N(c3ccc([N+](=O)[O-])cc3)C2=O)c(C)n1-c1cccnc1`, for which the cell number change is -75.1%. Moreover, under setting [2], the AC50 was 1.64 µM [falling, full curve]. Further, the concentration at half-maximal activity (AC50) under setting [1] was 1.3 µM [falling, full curve].
For `COc1ccc(S(=O)(=O)N2CCCN(S(=O)(=O)c3ccc(OC)c(C)c3)CC2)cc1C`, the cell number change was -26.8%. In addition, the AC50 under setting [1] was 23.1 µM [falling, partial curve, poor fit].
With `CCCc1cc(-c2nc(N)ncc2-c2ccc3c(c2)OCCCO3)c(O)cc1OC`, the cell number change is -117%. Besides, the AC50 under setting [2] was 1.84 µM [rising, partial curve]. For the same molecule, the AC50 under setting [1] is 1.84 µM [rising, partial curve].
As for `O=C(c1ccco1)N1CCN(C(=O)c2ccc(COc3ccc(F)cc3)o2)CC1`, the cell number change was -20.4%. Also, under setting [2], the AC50 was 3.66 µM [falling, full curve, poor fit]. Besides, the AC50 under setting [1] was 4.11 µM [falling, full curve, poor fit].
Take `CC(C)C(NS(=O)(=O)c1cccc(C(F)(F)F)c1)C(=O)N1CCc2ccccc2C1` (stereo not given): the cell number change is 18.4%.
For `CCc1cc2c(CN(C)Cc3ccccc3F)cc(=O)oc2cc1O`, the cell number change amounted to 19.4%. Besides, under setting [1], the AC50 is 0.291 µM [rising, partial curve, poor fit].
For `CCOCCCNC(=O)c1cn(C)c2ccc(S(=O)(=O)N3CCCCC3)cc2c1=O`, the cell number change is -23.9%. For the same molecule, the AC50 under setting [2] is 0.0411 µM [falling, full curve, poor fit]. In addition, the AC50 under setting [1] was 2.06 µM [rising, partial curve].
Regarding `O=C(CCc1nc(-c2ccccc2)c(-c2ccccc2)o1)OCc1ccc(Br)cc1`, the cell number change was 7.75%.
For `Cc1ccc(OCCOCCN2CCN(C)CC2)c(C(C)(C)C)c1`, the cell number change was -3.57%. For the same molecule, the AC50 under setting [1] was 6.51 µM [rising, single point].
For the molecule `COc1cccc(CN2CC(C(=O)NCCCc3ccc(C)cc3)CCC2=O)c1` (stereo not given), the cell number change was -15.3%.
Same read-out and setting: then `Cc1c(NC(=O)CCN2C(=O)c3ccccc3C2=O)c(=O)n(-c2ccccc2)n1C`, with -19.3%.
As to `Cc1ccc(/C=C2/Sc3ccc(C(=O)N4CCN(C)CC4)cc3NC2=O)cc1`, under setting [1], the half-maximal activity concentration (AC50) is 23.1 µM [rising, single point].
Consider `O=[N+]([O-])c1ccc(Sc2cccc3cccnc23)cc1`, for which the concentration at half-maximal activity (AC50) under setting [2] is 4.11 µM [rising, single point].
As for `COC(=O)c1ccsc1NC(=O)CN1CCN(c2ccc(F)cc2)CC1`, the cell number change turned out to be 21.4%. For the same molecule, the AC50 under setting [1] is 10.3 µM [rising, partial curve].
As for `CC(OC(=O)C1=COCCO1)C(=O)Nc1cc(S(=O)(=O)N2CCCCC2)ccc1Cl` (stereo not given), the cell number change was -13.2%. For the same molecule, the AC50 under setting [1] is 4.11 µM [falling, single point].
`COc1ccc(CCC(=O)Nc2sc(C(=O)N(C)C)c(C)c2C#N)cc1`: the cell number change is -7.18%. Moreover, the AC50 under setting [1] is 6.51 µM [rising, single point].
Consider `COc1cc2ccccc2cc1C(=O)NC(=S)Nc1ccc(C(=O)O)cc1`, for which, under setting [1], the AC50 was 20.6 µM [falling, partial curve].
As to `CC(=O)C12C3C4C(C5C1C3C5(Br)C41OCCO1)C21OCCO1` (stereo not given), the cell number change was -39.4%. Moreover, the AC50 under setting [2] was 1.84 µM [falling, partial curve, poor fit]. Further, under setting [1], the AC50 was 23.1 µM [falling, single point].
As to `O=C(NCc1nc(-c2ccccc2)no1)c1ccc2c(c1)OCO2`, the cell number change was -1.59%. In addition, the AC50 under setting [1] was 6.51 µM [rising, single point].
Take `Cc1ccc(S(=O)(=O)N2CCN(C(=O)Cn3cnc4c3c(=O)n(C)c(=O)n4C)CC2)cc1C`: the cell number change came out at 3.88%.
Regarding `CN1C(=O)C2(C(C#N)=C(N)Oc3n[nH]c(-c4ccc(Cl)cc4)c32)c2ccccc21` (stereo not given), the cell number change was determined as 3.74%. Further, the AC50 under setting [1] is 1.46 µM [rising, partial curve, poor fit].
For the molecule `CCCCN(C(=O)CSc1nnc(-c2ccc(OC)cc2)n1C(C)C)c1c(N)n(Cc2ccccc2)c(=O)[nH]c1=O`, the cell number change was -34.3%. Also, under setting [1], the concentration at half-maximal activity (AC50) was 13 µM [falling, partial curve, poor fit].
Regarding `CCc1ccc(C(=O)NNC(=O)CN2C(=O)NC3(CCCC3)C2=O)cc1`, the cell number change is -0.688%. The AC50 under setting [1] was 20.6 µM [rising, partial curve].
Regarding `CN1C(C(=O)Nc2cccc(O)c2)=CC(c2ccco2)=NS1(=O)=O`, the cell number change was determined as 6.63%. Under setting [2], the AC50 is 0.103 µM [rising, full curve, poor fit]. Further, the AC50 under setting [1] is 0.0731 µM [rising, full curve, poor fit].
As for `CC(C)CNc1cc(=O)n(C)c(=O)n1C`, the cell number change came to 2.19%. For the same molecule, the AC50 under setting [1] was 0.146 µM [falling, partial curve, poor fit].
With `COc1cc(C)c(C(=O)CSc2nnc(CNC(=O)c3ccco3)n2C)cc1C`, under setting [1], the AC50 is 20.6 µM [rising, partial curve].
For the molecule `Cc1cccc2cc(CN(Cc3cccnc3)C(=O)c3cccs3)c3nnnn3c12`, the cell number change is -6.05%. Under setting [1], the AC50 is 3.26 µM [rising, full curve, poor fit].
Consider `O=C(COc1cccc(Cl)c1)NCC(c1cccs1)N1CCOCC1` (stereo not given), for which the cell number change came out at 37%.
Turning to `O=C(CN1CCN(S(=O)(=O)c2ccccc2)CC1)N1CCc2ccccc21`, the cell number change was found to be 21%. For the same molecule, under setting [1], the AC50 is 3.26 µM [rising, partial curve].
Consider `O=C(Nc1ccccc1C(=O)N1CCOCC1)C1COc2ccccc2O1` (stereo not given), for which the cell number change was found to be 8.05%. The AC50 under setting [1] is 6.51 µM [falling, single point].
Consider `Cc1ccccc1Cn1c(=O)n(CCCC(=O)NCc2ccco2)c(=O)c2sccc21`, for which the cell number change worked out at 149%. Further, the AC50 under setting [2] was 20.6 µM [rising, single point]. Moreover, the AC50 under setting [1] is 25.9 µM [rising, single point].
Consider `COc1ccc(C(=O)n2c(SC)nc3cc4c(cc32)OCCO4)cc1`, for which the cell number change is -17%.
On the same count and under the same terms, the same measure for `Cn1c(N)c(C(=O)COC(=O)C2CC(O)CN2S(=O)(=O)c2ccc(Cl)cc2)c(=O)n(C)c1=O` (stereo not given): -0.245%; for `CCOc1cccc(NC(=O)/C(C#N)=C\c2cccnc2)c1`: -6.47%.
On to `CC(=O)Nc1ccc(NC(=O)c2c(C)nn(Cc3ccccc3)c2Cl)cc1`, for which the cell number change was 4.96%. Besides, under setting [1], the half-maximal activity concentration (AC50) was 29.1 µM [rising, partial curve, poor fit].
As to `CC1(c2ccccn2)Nc2ccccc2-c2nc3ccccc3n21` (stereo not given), the cell number change is -13.4%.
Turning to `Cc1cc2c(ccc3c2no[n+]3[O-])nn1`, the cell number change was -15.5%.
On to `C=CCNC(=S)Nc1ccc(N2CCOCC2)c(S(=O)(=O)Nc2ccccc2Cl)c1`, for which, under setting [2], the AC50 was 0.82 µM [rising, partial curve].
As for `COc1ccc(-c2cc(C(=O)N3CCN(c4ccccc4)CC3)no2)cc1`, the cell number change came to 7.21%. Besides, the AC50 under setting [1] was 0.651 µM [rising, full curve].
In the case of `COC(=O)c1c(C)oc(C)c1S(=O)(=O)NCc1ccc(OC)cc1`, the cell number change worked out at 9.1%. Besides, the AC50 under setting [1] is 0.13 µM [falling, full curve, poor fit].
As to `CC(C)Oc1ccc(C(CC(=O)O)NC(=O)CSc2ncn[nH]2)cc1` (stereo not given), the cell number change was found to be 3.45%.
As for `Cc1ccc(OCCn2cc(/C(N)=N/O)c3ccccc32)cc1C`, the cell number change is -54.8%. Further, the AC50 under setting [2] is 29.1 µM [falling, single point].
Take `O=C(COc1ccc2ccccc2c1)Nc1ccc(Cc2ccncc2)cc1`: the cell number change was -65.2%. Further, the AC50 under setting [2] is 23.1 µM [falling, single point]. For the same molecule, the AC50 under setting [1] was 25.9 µM [falling, partial curve].
As for `Cc1ccc(S(=O)(=O)/N=C(/c2ccc(F)cc2)N2CCCC2)cc1`, the AC50 under setting [1] was 0.00461 µM [falling, full curve, poor fit].
On to `Cc1nc2ccc(NC(=O)c3ccc(S(=O)(=O)N(C)c4ccccc4)cc3)cc2s1`, for which the cell number change stood at 233%. Under setting [2], the AC50 was 18.4 µM [rising, single point]. Besides, the AC50 under setting [1] is 6.51 µM [rising, single point].
On to `NC(=O)c1ccsc1NC(=O)CN1C(=O)C2CC=CCC2C1=O` (stereo not given), for which the cell number change stood at 16.7%. Moreover, the AC50 under setting [1] was 2.31 µM [rising, single point].
